{
  "source": "paper PMC5839386",
  "key": {"[1]": {"target": "T1, Flag-tagged C. elegans RHEB-1 (C. elegans) (UniProt P34443)", "T1 sequence": "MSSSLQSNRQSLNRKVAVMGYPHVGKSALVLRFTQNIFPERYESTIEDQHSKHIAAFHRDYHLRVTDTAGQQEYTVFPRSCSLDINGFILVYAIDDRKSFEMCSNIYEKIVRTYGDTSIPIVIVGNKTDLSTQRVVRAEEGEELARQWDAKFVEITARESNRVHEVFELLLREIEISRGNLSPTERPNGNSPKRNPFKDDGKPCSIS", "assay": "co-IP; HEK293T cells co-transfected with Flag- and V5-tagged proteins; lysis in IP buffer (1% Triton-X 100, 20 mM Tris pH 7.5, 50 mM NaCl); anti-FLAG M2 affinity beads, 4°C; blot with anti-V5"}, "[2]": {"target": "T2, Flag-tagged Rab23 (control protein) (UniProt Q9ULC3)", "T2 sequence": "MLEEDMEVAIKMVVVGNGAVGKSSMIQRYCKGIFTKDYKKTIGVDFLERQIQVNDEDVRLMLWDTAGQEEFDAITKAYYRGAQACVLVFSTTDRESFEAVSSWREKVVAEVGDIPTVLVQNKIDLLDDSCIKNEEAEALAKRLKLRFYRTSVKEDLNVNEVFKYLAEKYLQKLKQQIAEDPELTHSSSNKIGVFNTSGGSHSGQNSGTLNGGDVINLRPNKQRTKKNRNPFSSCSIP", "assay": "co-IP; HEK293T cells co-transfected with Flag- and V5-tagged proteins; lysis in IP buffer (1% Triton-X 100, 20 mM Tris pH 7.5, 50 mM NaCl); anti-FLAG M2 affinity beads, 4°C; blot with anti-V5"}},
  "note": "Results are given in words; binding and its absence hold for the method and conditions named. In cells and extracts the contact can be indirect. For some assays here: Binding can be weak; no strength is given. Tags and fused reporters may be left off the sequences shown.",
  "data": [
    {"substance": "V5-tagged C. elegans CGEF-1", "values": [
      {"measurement": "binding", "setting": "[1]", "result": "binds"},
      {"measurement": "binding", "setting": "[2]", "result": "no binding"}
    ]}
  ]
}
